Publication PMC9396407
Like-named read-outs stand apart in the source and are kept apart here. No constants are given. Whether binding was seen depends on the method and setting. Binding seen in cells or lysates may run through a third protein. A yes stands for co-enrichment or nearness to the bait. Other partners may have been found.

The chains behind the UniProt entries cited, without tags or fusion partners.
UniProt Q92616: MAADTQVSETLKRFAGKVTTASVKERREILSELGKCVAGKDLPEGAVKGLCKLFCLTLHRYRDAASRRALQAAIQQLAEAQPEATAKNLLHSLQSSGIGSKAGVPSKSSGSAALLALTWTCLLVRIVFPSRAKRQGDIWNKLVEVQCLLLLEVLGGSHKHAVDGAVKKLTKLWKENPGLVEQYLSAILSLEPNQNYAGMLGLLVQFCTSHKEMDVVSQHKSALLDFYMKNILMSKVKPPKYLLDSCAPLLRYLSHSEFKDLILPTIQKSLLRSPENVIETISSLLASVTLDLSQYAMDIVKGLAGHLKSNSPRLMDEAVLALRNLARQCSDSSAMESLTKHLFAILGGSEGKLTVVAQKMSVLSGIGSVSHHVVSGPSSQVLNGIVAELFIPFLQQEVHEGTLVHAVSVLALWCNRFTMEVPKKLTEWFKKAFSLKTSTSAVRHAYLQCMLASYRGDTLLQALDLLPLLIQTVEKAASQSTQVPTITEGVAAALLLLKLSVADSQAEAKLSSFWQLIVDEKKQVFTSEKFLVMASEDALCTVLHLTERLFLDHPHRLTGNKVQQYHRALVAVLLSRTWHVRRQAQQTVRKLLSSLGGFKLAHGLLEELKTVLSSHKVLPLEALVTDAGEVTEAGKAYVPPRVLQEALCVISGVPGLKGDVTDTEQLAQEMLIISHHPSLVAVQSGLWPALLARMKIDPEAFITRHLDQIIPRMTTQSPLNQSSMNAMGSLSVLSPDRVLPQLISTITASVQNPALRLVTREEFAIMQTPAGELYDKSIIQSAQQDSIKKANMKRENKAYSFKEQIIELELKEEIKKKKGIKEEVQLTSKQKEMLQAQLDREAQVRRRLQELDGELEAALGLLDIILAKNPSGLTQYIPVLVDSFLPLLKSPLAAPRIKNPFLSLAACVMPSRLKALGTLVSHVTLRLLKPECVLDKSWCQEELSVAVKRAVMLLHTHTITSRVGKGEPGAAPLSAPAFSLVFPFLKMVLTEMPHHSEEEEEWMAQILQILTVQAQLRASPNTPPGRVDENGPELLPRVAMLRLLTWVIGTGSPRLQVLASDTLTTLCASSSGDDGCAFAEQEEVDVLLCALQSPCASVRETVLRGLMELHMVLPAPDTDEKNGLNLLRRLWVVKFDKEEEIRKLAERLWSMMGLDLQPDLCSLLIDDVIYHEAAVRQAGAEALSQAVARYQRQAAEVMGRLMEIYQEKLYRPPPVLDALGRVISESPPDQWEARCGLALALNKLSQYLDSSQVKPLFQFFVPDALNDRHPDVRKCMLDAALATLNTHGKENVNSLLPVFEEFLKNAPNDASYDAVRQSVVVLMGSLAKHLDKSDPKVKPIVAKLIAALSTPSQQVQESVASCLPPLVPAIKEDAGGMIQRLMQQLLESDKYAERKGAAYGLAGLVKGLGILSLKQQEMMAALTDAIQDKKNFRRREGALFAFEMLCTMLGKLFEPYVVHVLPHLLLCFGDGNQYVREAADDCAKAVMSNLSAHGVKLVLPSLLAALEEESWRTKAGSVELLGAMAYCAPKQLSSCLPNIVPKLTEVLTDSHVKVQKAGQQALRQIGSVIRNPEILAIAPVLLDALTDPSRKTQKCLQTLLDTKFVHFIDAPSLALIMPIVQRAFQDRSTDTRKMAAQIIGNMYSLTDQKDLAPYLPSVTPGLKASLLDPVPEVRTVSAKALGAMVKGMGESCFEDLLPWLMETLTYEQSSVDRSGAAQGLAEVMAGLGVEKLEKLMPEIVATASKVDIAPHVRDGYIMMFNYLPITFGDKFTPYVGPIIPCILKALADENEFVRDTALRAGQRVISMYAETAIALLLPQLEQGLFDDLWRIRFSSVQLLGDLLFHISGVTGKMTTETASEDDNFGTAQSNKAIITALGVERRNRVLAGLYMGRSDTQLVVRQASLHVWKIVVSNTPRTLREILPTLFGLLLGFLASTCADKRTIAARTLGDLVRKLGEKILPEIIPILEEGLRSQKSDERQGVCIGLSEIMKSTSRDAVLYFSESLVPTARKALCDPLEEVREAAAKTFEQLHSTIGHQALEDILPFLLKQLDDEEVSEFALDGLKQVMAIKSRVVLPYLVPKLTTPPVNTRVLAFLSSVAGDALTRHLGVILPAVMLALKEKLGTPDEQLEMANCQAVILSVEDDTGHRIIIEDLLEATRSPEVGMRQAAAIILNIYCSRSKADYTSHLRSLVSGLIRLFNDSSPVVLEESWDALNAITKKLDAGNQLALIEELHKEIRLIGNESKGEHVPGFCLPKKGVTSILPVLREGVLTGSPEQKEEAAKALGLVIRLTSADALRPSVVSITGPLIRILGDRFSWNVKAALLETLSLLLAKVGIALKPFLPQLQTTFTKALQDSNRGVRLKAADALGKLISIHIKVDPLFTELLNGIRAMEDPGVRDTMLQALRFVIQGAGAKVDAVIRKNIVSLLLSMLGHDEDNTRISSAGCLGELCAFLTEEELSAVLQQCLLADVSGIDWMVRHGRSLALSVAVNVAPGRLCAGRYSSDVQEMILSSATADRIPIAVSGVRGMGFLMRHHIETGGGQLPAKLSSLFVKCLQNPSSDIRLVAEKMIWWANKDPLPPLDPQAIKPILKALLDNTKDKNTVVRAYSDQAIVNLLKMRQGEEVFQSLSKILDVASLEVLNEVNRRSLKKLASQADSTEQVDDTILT
UniProt Q04637: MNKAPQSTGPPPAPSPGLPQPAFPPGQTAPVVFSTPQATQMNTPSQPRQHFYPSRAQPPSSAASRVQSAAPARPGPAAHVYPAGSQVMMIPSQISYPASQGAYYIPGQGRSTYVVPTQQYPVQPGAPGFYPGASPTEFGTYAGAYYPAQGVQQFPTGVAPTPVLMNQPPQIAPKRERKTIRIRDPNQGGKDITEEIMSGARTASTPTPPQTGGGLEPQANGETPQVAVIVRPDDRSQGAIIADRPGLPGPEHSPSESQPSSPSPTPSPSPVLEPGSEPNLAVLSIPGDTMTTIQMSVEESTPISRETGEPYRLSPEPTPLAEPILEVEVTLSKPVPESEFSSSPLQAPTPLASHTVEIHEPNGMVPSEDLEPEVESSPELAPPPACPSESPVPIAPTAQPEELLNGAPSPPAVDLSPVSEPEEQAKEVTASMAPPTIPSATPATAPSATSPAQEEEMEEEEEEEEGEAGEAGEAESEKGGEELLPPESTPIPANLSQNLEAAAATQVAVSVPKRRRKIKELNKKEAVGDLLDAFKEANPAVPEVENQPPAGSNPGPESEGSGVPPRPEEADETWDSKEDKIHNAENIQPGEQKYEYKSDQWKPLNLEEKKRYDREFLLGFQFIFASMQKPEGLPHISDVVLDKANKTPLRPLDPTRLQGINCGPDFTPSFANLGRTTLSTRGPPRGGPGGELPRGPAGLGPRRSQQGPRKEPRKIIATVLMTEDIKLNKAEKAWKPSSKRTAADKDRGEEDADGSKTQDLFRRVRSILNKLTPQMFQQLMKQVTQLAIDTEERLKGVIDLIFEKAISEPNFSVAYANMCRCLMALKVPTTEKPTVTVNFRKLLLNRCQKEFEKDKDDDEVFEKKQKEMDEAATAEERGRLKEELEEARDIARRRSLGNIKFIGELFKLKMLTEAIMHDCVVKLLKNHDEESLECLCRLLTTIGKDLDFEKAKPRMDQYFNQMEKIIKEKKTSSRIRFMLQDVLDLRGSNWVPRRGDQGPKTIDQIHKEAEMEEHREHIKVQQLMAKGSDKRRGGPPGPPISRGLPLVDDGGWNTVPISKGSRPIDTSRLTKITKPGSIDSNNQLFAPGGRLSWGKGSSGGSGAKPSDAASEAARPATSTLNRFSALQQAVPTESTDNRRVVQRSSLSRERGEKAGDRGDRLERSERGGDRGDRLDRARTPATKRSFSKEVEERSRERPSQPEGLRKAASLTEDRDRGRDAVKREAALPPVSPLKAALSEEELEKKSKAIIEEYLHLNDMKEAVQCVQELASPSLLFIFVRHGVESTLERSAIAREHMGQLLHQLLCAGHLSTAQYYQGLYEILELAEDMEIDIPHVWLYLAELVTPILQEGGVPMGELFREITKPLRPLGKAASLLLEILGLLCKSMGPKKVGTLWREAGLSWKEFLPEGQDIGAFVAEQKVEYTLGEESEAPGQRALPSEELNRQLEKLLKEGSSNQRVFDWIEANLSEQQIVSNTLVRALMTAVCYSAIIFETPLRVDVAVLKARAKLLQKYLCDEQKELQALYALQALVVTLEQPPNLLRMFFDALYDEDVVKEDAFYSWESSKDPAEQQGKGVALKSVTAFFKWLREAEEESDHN

B1: GYGYF2 (protein, UniProt Q6Y7W6 1-1299)
chain: MAAETQTLNFGPEWLRALSSGGSITSPPLSPALPKYKLADYRYGREEMLALFLKDNKIPSDLLDKEFLPILQEEPLPPLALVPFTEEEQRNFSMSVNSAAVLRLTGRGGGGTVVGAPRGRSSSRGRGRGRGECGFYQRSFDEVEGVFGRGGGREMHRSQSWEERGDRRFEKPGRKDVGRPNFEEGGPTSVGRKHEFIRSESENWRIFREEQNGEDEDGGWRLAGSRRDGERWRPHSPDGPRSAGWREHMERRRRFEFDFRDRDDERGYRRVRSGSGSIDDDRDSLPEWCLEDAEEEMGTFDSSGAFLSLKKVQKEPIPEEQEMDFRPVDEGEECSDSEGSHNEEAKEPDKTNKKEGEKTDRVGVEASEETPQTSSSSARPGTPSDHQSQEASQFERKDEPKTEQTEKAEEETRMENSLPAKVPSRGDEMVADVQQPLSQIPSDTASPLLILPPPVPNPSPTLRPVETPVVGAPGMGSVSTEPDDEEGLKHLEQQAEKMVAYLQDSALDDERLASKLQEHRAKGVSIPLMHEAMQKWYYKDPQGEIQGPFNNQEMAEWFQAGYFTMSLLVKRACDESFQPLGDIMKMWGRVPFSPGPAPPPHMGELDQERLTRQQELTALYQMQHLQYQQFLIQQQYAQVLAQQQKAALSSQQQQQLALLLQQFQTLKMRISDQNIIPSVTRSVSVPDTGSIWELQPTASQPTVWEGGSVWDLPLDTTTPGPALEQLQQLEKAKAAKLEQERREAEMRAKREEEERKRQEELRRQQEEILRRQQEEERKRREEEELARRKQEEALRRQREQEIALRRQREEEERQQQEEALRRLEERRREEEERRKQEELLRKQEEEAAKWAREEEEAQRRLEENRLRMEEEAARLRHEEEERKRKELEVQRQKELMRQRQQQQEALRRLQQQQQQQQLAQMKLPSSSTWGQQSNTTACQSQATLSLAEIQKLEEERERQLREEQRRQQRELMKALQQQQQQQQQKLSGWGNVSKPSGTTKSLLEIQQEEARQMQKQQQQQQQHQQPNRARNNTHSNLHTSIGNSVWGSINTGPPNQWASDLVSSIWSNADTKNSNMGFWDDAVKEVGPRNSTNKNKNNASLSKSVGVSNRQNKKVEEEEKLLKLFQGVNKAQDGFTQWCEQMLHALNTANNLDVPTFVSFLKEVESPYEVHDYIRAYLGDTSEAKEFAKQFLERRAKQKANQQRQQQQLPQQQQQQPPQQPPQQPQQQDSVWGMNHSTLHSVFQTNQSNNQQSNFEAVQSGKKKKKQKMVRADPSLLGFSVNASSERLNMGEIETLDDY

Columns and labels:
[1] = biological target: 3xFlag-tagged GCN1 (endogenously tagged, knock-in HEK293T cells) (human (endogenous in HEK293T)) (UniProt Q92616); test: affinity purification with mass spectrometry; anti-Flag immunoprecipitates from HEK293T cells endogenously expressing 3xFlag-GCN1, steady state, n = 1; negative control was HEK293T cells not expressing 3xFlag-GCN1; SAINT score >=0.9
[2] = biological target: 3xFlag-tagged GCN1 (endogenously tagged, knock-in HEK293T cells) (human (endogenous in HEK293T)) (UniProt Q92616); test: as above; remark: listed apart in the source

Molecule	binding [1]	binding [2]
EIF4G1 (from UniProt Q04637 1-1599)	binds	–
B1	–	binds
